# Results: PMC5467237
# Chains of the proteins cited; added tags and fusions are not shown.
# UniProt P99999: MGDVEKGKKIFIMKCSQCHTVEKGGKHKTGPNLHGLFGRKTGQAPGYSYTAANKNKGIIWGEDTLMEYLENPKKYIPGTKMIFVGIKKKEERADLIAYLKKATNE
# Results are given in words; binding and its absence hold for the method and conditions named. Binding seen in cells or lysates may run through a third protein. Some binding calls cover weakened binding; strength is not graded here. For part of these data: Tags and fused reporters may be left off the sequences shown.
# T1: endogenous MICS1 (precipitated with anti-MICS1) (UniProt Q9H3K2)
# T1 sequence: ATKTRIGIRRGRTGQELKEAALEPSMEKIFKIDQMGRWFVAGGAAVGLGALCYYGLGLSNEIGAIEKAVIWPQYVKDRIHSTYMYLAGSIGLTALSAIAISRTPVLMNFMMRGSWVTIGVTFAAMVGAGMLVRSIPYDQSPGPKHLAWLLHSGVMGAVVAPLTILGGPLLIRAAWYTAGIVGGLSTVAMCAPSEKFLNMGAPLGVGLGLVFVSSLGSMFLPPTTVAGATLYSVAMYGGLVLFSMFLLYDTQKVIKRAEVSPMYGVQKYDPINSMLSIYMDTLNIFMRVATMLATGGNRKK
# B1: MICS1-HA (protein, UniProt Q9H3K2 46-345)
# chain: T1 sequence
# B2: Tim23 (protein, UniProt O14925 1-209)
# chain: MEGGGGSGNKTTGGLAGFFGAGGAGYSHADLAGVPLTGMNPLSPYLNVDPRYLVQDTDEFILPTGANKTRGRFELAFFTIGGCCMTGAAFGAMNGLRLGLKETQNMAWSKPRNVQILNMVTRQGALWANTLGSLALLYSAFGVIIEKTRGAEDDLNTVAAGTMTGMLYKCTGGLRGIARGGLTGLTLTSLYALYNNWEHMKGSLLQQSL
# Assays:
# [1] = target: T1, endogenous MICS1 (precipitated with anti-MICS1); test: co-IP; endogenous proteins; lysates from cells treated with or without DSP, immunoprecipitated with anti-MICS1 or a control antibody; co-precipitates analysed in the presence or absence of DTT
# Cyt c-FLAG = Cyt c-FLAG (UniProt P99999); test: co-IP; transfected HEK293T cells treated with 0.5 mg/ml DSP (thiol-cleavable crosslinker) at 25 °C for 15-20 min, lysed in 50 mM Tris-HCl pH 8.0, 150 mM NaCl, 1% Triton X-100, 0.1% SDS; anti-FLAG or anti-Myc beads 3 h at 4 °C; western blot
Molecule,binding [1],binding (Cyt c-FLAG)
endogenous Cyt c (from UniProt P99999 1-105),binds,
B1,,binds
B2,,no binding
